Measured values: PubChem BioAssay AID1347075 (National Center for Advancing Translational Sciences (NCATS), 2019)
Hit rate of the full screen: of about 400,000 compounds, about 5,500 (1.4%) were called active. The shares of active, inactive and inconclusive entries below differ from those in the screen. The call rests on the fitted dose curve; in most records, active means well fitted cell-killing curve with a large enough effect; inconclusive means small, poorly fitted or top-dose-only effect, or effect the other way; inactive means flat fitted curve, though single readings scatter. Potencies of inconclusive entries are doubtful fits and often do not repeat.

assay: qHTS assay for MDR1-selective chemotherapeutics: Primary screen using the parental adenocarcinoma cell KB-3-1; settings: KB-3-1 viability, CellTiter-Glo ATP luminescence, 72 h; activity change, negative = cytotoxic: at 46.1 µM (top of the series); further: nearly all actives have a fitted effect of over 60% in size
In short: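 72 h, 37 °C compound treatment of KB-3-1 parental cells; CellTiter-Glo added, 10 min, luminescence read. Data corrected against DMSO-only plates and normalized before curve fitting.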
On the % scale 0 is the no-effect control and ±100 the full control effect; potency means the concentration at half of the fitted maximal effect.

| SMILES | Potency | activity change, negative = cytotoxic |
| --- | --- | --- |
| CCCCNc1c(-c2cccc(SC(C)CC)c2)nc2ccc(Cl)cn12 (stereo not drawn) | inconclusive: 18.4 µM [cytotoxic, single point] | – |
| CC1CCCN(S(=O)(=O)c2cc3c4c(c2)CC(=O)N4CCC3)C1 (stereo not drawn) | – | inactive: 1.23% |
| Cn1c(SCC(=O)N2CCN(c3cccc(Cl)c3)CC2)nnc1-c1ccncc1 | active: 13 µM | – |
| O=C1Nc2ccccc2CCC1Sc1nnc(-c2ccc(Cl)cc2)s1 (stereo not drawn) | active: 20.6 µM | – |
| CCOC(=O)N1CCN(C(=O)C(NS(=O)(=O)c2cccc3nsnc23)c2ccccc2)CC1 (stereo not drawn) | inconclusive: 25.9 µM [rising, partial curve, poor fit] | – |
| COc1ccc(/C=C/C(=O)OC2CCCN(C)C2)cc1 (stereo not drawn) | inconclusive: 5.8 µM [rising, partial curve, poor fit] | – |
| CCCN(CCC)S(=O)(=O)c1ccc(C(=O)Nc2nnc(CSC)o2)cc1 | active: 6.51 µM | – |
| COc1ccc(NC(=O)C2CCN(S(=O)(=O)c3cccnc3)CC2)cc1Cl | inconclusive: 0.164 µM [rising, full curve] | – |
| Oc1ccc(NCc2ccc(OCc3ccccc3)cc2)cc1 | inconclusive: 29.1 µM [cytotoxic, single point] | – |
| Cc1ccc(C(=O)NC2c3ccccc3-c3ccccc32)cc1 | active: 6.51 µM | – |
| O=C(Cc1cnn(-c2ccccc2)c1)c1ccc(O)c(O)c1O | inconclusive: 16.4 µM [cytotoxic, single point] | – |
| CCN(CC)S(=O)(=O)c1ccc2c(c1)N(CC(=O)NCCCN1CCN(c3cc(Cl)ccc3C)CC1)C(=O)CO2 | inconclusive: 29.1 µM [cytotoxic, single point] | – |
| CC(=O)NS(=O)(=O)c1ccc(NC(=O)c2ccc3c(c2)NC(=O)CS3)cc1 | inconclusive: 8.2 µM [rising, partial curve, poor fit] | – |
| CCN(CC)S(=O)(=O)c1cccc(C(=O)OCC(=O)c2ccc3c(c2)OCCO3)c1 | – | inactive: 2.18% |
| CS(=O)(=O)N(Cc1ccc(Cl)cc1)c1ccc(C(=O)N2CCN(c3ccccc3)CC2)cc1 | inconclusive: 25.9 µM [cytotoxic, single point] | – |
| Cc1cccc(NC(=O)C2CCN(c3cnccn3)CC2)c1 | inconclusive: 0.0103 µM [rising, full curve] | – |
| CCOC(=O)c1ccc(N=c2sc(C(=O)OC)cc(=O)n2-c2ccc(C(=O)OCC)cc2)cc1 | inconclusive: 29.1 µM [cytotoxic, single point] | – |
| Cc1cc[n+](CCc2ccccc2)cc1C | inconclusive: 29.1 µM [cytotoxic, single point] | – |
| Cc1ccc(/C=N/NC(=O)c2cc(C)oc2C)cc1 | inconclusive: 29.1 µM [cytotoxic, single point] | – |
| Cc1cccc(C)c1NC(=O)c1ccc(CN2CCc3ccccc3C2)cc1 | inconclusive: 20.6 µM [cytotoxic, single point] | – |
| COc1ccc2c(c1)c1c(c(=O)n(Cc3ccccc3)c(=O)n1CC(=O)NCc1ccccc1)n2C | – | inconclusive: 5.94% |
| CCC(=O)Nc1ccc2c(c1)nc(CN1CCCCC1)n2C | – | inactive: -25.4% |
| O=C(NCc1ccccc1)C(c1ccc(-c2ccccc2)cc1)N1CCN(C(=O)C2CCCO2)CC1 (stereo not drawn) | inconclusive: 29.1 µM [cytotoxic, single point] | – |

| SMILES | Potency | activity change, negative = cytotoxic |
| --- | --- | --- |
| CCOC(=O)CCCOC(=O)c1ccc(S(=O)(=O)N(C)C)cc1 | – | inactive: -0.203% |
| N#Cc1c(N2CCCCC2)nc(N2CCCCC2)c2c1CCN(Cc1ccccc1)C2 | inconclusive: 23.1 µM [cytotoxic, single point] | – |
| COc1ccc2o/c(=N\O)c(C(=O)Nc3ccccc3OC)cc2c1 | – | inactive: 6.99% |
| Cc1ccc(OCc2cc(C(=O)N(C)CCc3ccccn3)no2)cn1 | inconclusive: 18.4 µM [cytotoxic, partial curve, poor fit] | – |
| COc1ccc(CNCc2c(C(=O)O)n(Cc3ccc(F)cc3)c3cc(C)ccc23)cc1OC | inconclusive: 5.17 µM [cytotoxic, full curve] | – |
| Cc1ccc(C(=O)NC(N2CCCC2)C(Cl)(Cl)Cl)cc1 (stereo not drawn) | – | inconclusive: -13% |
| N#C/C(=C\c1c(N2CCCCC2)nc2ccccn2c1=O)C(=O)NCc1ccco1 | inconclusive: 18.4 µM [rising, partial curve] | – |
| COc1cccc(N2CCN(S(=O)(=O)c3cc4c(cc3C)N(C)CCO4)CC2)c1 | inconclusive: 16.4 µM [cytotoxic, single point] | – |
| O=C(c1ccc2ncsc2c1)N1CCN(c2cccc(C(F)(F)F)c2)CC1 | inconclusive: 14.6 µM [cytotoxic, partial curve, poor fit] | – |
| Cc1ccc(C)c(OCc2nc3ccccc3[nH]2)c1 | inconclusive: 14.6 µM [rising, partial curve] | – |
| COc1ccccc1N1CCN(C(=O)c2cc(=O)c3cc(C)ccc3o2)CC1 | active: 13 µM | – |
| Nc1ccc(C23CC4CC(CC(CO)(C4)C2)C3)cc1 | – | inactive: -3.7% |
| CCN1/C(=C/C=C/c2oc3ccc4ccccc4c3[n+]2CC)Oc2ccc3ccccc3c21 | inconclusive: 2.91 µM [cytotoxic, full curve, poor fit] | – |
| Cc1nc(N2CCOCC2)nc(N2CCCCC2C)c1[N+](=O)[O-] (stereo not drawn) | inconclusive: 23.1 µM [cytotoxic, partial curve, poor fit] | – |
| CC[C@H](CO)Oc1cc(NCc2ccc(Cl)c(Cl)c2)c2ncn(C(C)C)c2c1 | inconclusive: 29.1 µM [cytotoxic, single point] | – |
| CCOC(=O)c1[nH]c(C)c(/C(O)=C2\C(=O)C(=O)N(CCN3CCOCC3)C2c2cccs2)c1C (stereo not drawn) | active: 20 µM | – |
| Cc1oc(=O)c(NC(=O)c2ccccc2)cc1C(N)=O | – | inactive: 19.7% |
| Cc1ccc(NC(=O)CN(C)C(=O)Cn2ncc(Cl)c(Cl)c2=O)cc1 | inconclusive: 29.1 µM [cytotoxic, single point] | – |
| C#CCOc1ccccc1/C=C1/C(=O)ON=C1C | inconclusive: 6.51 µM [cytotoxic, partial curve, poor fit] | – |
| COc1ccc(CNC(=O)C2(C)Cc3c(-c4cccc(NC(C)=O)c4)ccnc3O2)cc1OC (stereo not drawn) | – | inactive: -6.67% |
| COc1cc(/C=N\NC(=O)c2cccc(Cl)c2)ccc1Oc1ccc([N+](=O)[O-])cn1 | – | inactive: 4.19% |
| Cc1ccc(C)c(NC(=O)C2CCN(c3cc(C)nc4c(-c5ccc(Cl)cc5)c(C)nn34)CC2)c1 | – | inactive: 0.179% |
| CC(=O)c1ccc(Nc2c3c(nc4ccccc24)CCCC3)cc1 | inconclusive: 0.731 µM [cytotoxic, full curve, poor fit] | – |

Looked up above:
`C#CCOc1ccccc1/C=C1/C(=O)ON=C1C` | Potency: inconclusive: 6.51 µM [cytotoxic, partial curve, poor fit]
`CCOC(=O)CCCOC(=O)c1ccc(S(=O)(=O)N(C)C)cc1` | activity change, negative = cytotoxic: inactive: -0.203%
`O=C(c1ccc2ncsc2c1)N1CCN(c2cccc(C(F)(F)F)c2)CC1` | Potency: inconclusive: 14.6 µM [cytotoxic, partial curve, poor fit]
`Cc1ccc(OCc2cc(C(=O)N(C)CCc3ccccn3)no2)cn1` | Potency: inconclusive: 18.4 µM [cytotoxic, partial curve, poor fit]
`Cc1ccc(C(=O)NC(N2CCCC2)C(Cl)(Cl)Cl)cc1` (stereo not drawn) | activity change, negative = cytotoxic: inconclusive: -13%

Next part

| SMILES | Potency | activity change, negative = cytotoxic |
| --- | --- | --- |
| Cc1onc(-c2ccccc2)c1C(=O)Nc1nc2c(s1)CCCC2 | inconclusive: 29.1 µM [cytotoxic, single point] | – |
| CC(C)C(=O)Nc1ccc2nc(SCC(=O)N3CCc4ccccc43)sc2c1 | inconclusive: 32.6 µM [cytotoxic, single point] | – |
| CCOC(=O)N1CCC(c2cc(=O)n3[nH]c(C)c(-c4ccc(F)cc4)c3n2)CC1 | inconclusive: 29.1 µM [cytotoxic, single point] | – |
| O=C(NN=C1CCCC1)c1n[nH]c2c1CCC2 | inconclusive: 29.1 µM [cytotoxic, single point] | – |
| Cc1cc(C)cc(C(=O)NN2CCOCC2)c1 | – | inactive: -35% |
| CC(C)n1cnc2c(Nc3cccc(F)c3)nc(NCCO)nc21 | inconclusive: 32.6 µM [cytotoxic, single point] | – |
| CC(=O)NC(=S)Nc1ccc(NC(=O)c2cccs2)cc1 | inconclusive: 8.2 µM [rising, partial curve, poor fit] | – |
| CCc1nnc(NS(=O)(=O)c2ccc(N=Cc3c(C)[nH]n(-c4ccc(C)c(C)c4)c3=O)cc2)s1 | inconclusive: 20.6 µM [cytotoxic, partial curve] | – |
| O=C(Nc1cccc(NC(=O)c2ccccc2)n1)c1ccccc1 | – | inactive: 7.75% |
| Cc1ccc(S(=O)(=O)N2CCCCC2)cc1NCC(=O)Nc1ccc(Br)cc1F | active: 3.26 µM | – |
| CC(=O)c1ccc(NC(=O)c2ccc3c(Cl)c4c(nc3c2)CCCC4)cc1 | inconclusive: 29.1 µM [cytotoxic, single point] | – |
| O=C(Nc1cccc2oc(=O)ccc12)c1ccc([N+](=O)[O-])cc1[N+](=O)[O-] | inconclusive: 23.1 µM [cytotoxic, single point] | – |
| COc1ccc(-c2cn3ccc(C)cc3n2)cc1 | inconclusive: 18.4 µM [cytotoxic, single point] | – |
| COc1ccc(-c2cnc3c(NC(C)=O)cc(-c4ccccc4OC)cn23)cc1OC | inconclusive: 29.1 µM [cytotoxic, single point] | – |
| CC1(C)Cc2nc3sc4c(=O)n(CC(=O)NCc5ccccc5)cnc4c3cc2CO1 | active: 2.59 µM | – |
| CC1CN(S(=O)(=O)c2ccc(C(=O)Nc3nnc(-c4ccco4)o3)cc2)CC(C)O1 (stereo not drawn) | inconclusive: 20.6 µM [cytotoxic, single point] | – |
| O=C(CSC(=S)N1CCCC1)NCCc1ccccc1 | – | inconclusive: 14.9% |
| CC(C)c1ccc2occ(CC(=O)N(Cc3ccc(F)cc3)C3CCS(=O)(=O)C3)c2c1 (stereo not drawn) | inconclusive: 29.1 µM [cytotoxic, single point] | – |
| O=C(c1ccc(Cl)c(Cl)c1)N1CCC(=O)N(C(COCc2ccc(Cl)cc2)Cc2ccccc2)CC1 (stereo not drawn) | inconclusive: 32.6 µM [cytotoxic, single point] | – |
| CCCC(C)c1nnc(NC(=O)c2cc(C(=O)OC)cc([N+](=O)[O-])c2)s1 (stereo not drawn) | – | inactive: 8.83% |
| Cc1ccc(-c2csc(NC(=S)NC(=O)/C=C/c3ccco3)n2)cc1 | active: 5.8 µM | – |
| COC(=O)CNC(c1ccccc1)c1cc(Br)ccc1NS(=O)(=O)c1ccccc1 (stereo not drawn) | – | inactive: 2.53% |
